# In PubChem BioAssay AID504467 (National Center for Advancing Translational Sciences (NCATS), 2011):
# Screen size: about 330,000 compounds; about 7,700 (2.3%) were called active. This list was built around the results that the source calls inconclusive (neither active nor inactive); the mix of calls is not that of the screen. The call rests on the fitted dose curve; in most records, active means well fitted inhibition curve with a large enough effect; inconclusive means small, poorly fitted or top-dose-only effect, or effect the other way; inactive means flat fitted curve, though single readings scatter. Where the call is inconclusive, the potency comes from a doubtful curve fit.
# Assay: qHTS screen for small molecules that inhibit ELG1-dependent DNA repair in human embryonic kidney (HEK293T) cells expressing luciferase-tagged ELG1; further: nearly all actives have a fitted effect of over 55% in size
# Conditions: HEK293T ELG1-luciferase reporter, luminescence, 16 h, DNA damage induced by 5-fluorouridine; series mostly up to 46.1 µM
# Procedure, shortened: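 5-Fluorouridine DNA damage + compound/DMSO, 2,000 cells/well, 16 h, 37 °C/5% CO2. ONE-Glo, 30 min RT, luminescence. Readout = decrease in reporter signal.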
# Potency means the concentration at half of the fitted maximal effect.
row,SMILES,Potency
1,NS(=O)(=O)c1ccc(CNS(=O)(=O)c2ccc3c(c2)OCCO3)cc1,"inconclusive: 10.3 µM [activator, partial curve, poor fit]"
2,Cc1ccc(-c2noc(-c3ccccc3F)n2)cc1,"inconclusive: 3.66 µM [activator, full curve]"
3,CCC(=O)CN(Cc1cc(OC)ccc1OC)S(=O)(=O)c1ccccc1Br,inactive
4,COc1ccc(C(=O)NCCCc2ccccc2)cc1OC,"inconclusive: 2.82 µM [activator, full curve, poor fit]"
5,CC1CCc2c(C(=O)NCc3ccccn3)csc2C1 (stereo not given),"inconclusive: 20.6 µM [activator, partial curve]"
6,Cc1ccc(C)c(OCC(O)CN2CCCCC2C)c1 (stereo not given),inactive
7,S=c1sc2ccccc2n1CCc1ccncc1,"inconclusive: 3.98 µM [inhibitor, single point]"
8,Cc1[nH]c2ccccc2c1CN1CCC(Cc2ccccc2)CC1,"inconclusive: 5.8 µM [inhibitor, partial curve, poor fit]"
9,C/C(=N\NC(=O)c1ccc(C)cc1C)c1ccc2c(c1)Nc1ccccc1S2,"inconclusive: 23.1 µM [inhibitor, partial curve, poor fit]"
10,Cc1cc(C(=O)Nc2cccnc2Cl)on1,"inconclusive: 29.1 µM [activator, single point]"
11,CCC(C(=O)OCC(=O)c1ccc2c(c1)NC(=O)CO2)c1ccccc1 (stereo not given),inactive
12,Cc1cc(C)c2oc(-c3cccc(N)c3)nc2c1,"inconclusive: 13 µM [activator, partial curve]"
13,CCc1ccc(NC(=O)c2ccc(C3SCC(=O)N3CCc3ccccc3)cc2)cc1 (stereo not given),active: 10.3 µM
14,COc1cc(OC)cc(C(=O)OCC(=O)Nc2cccc(S(=O)(=O)NC3=NCCCCC3)c2)c1,"inconclusive: 20.6 µM [inhibitor, partial curve]"
15,O=C(c1ccco1)c1cn[nH]c1-c1ccc(Cl)cc1O,"inconclusive: 13 µM [inhibitor, partial curve]"
16,COCCCNC(=O)CNC(=O)c1nn(-c2ccc(OC)c(Cl)c2)c(=O)c2ccccc12,inactive
17,O=C(CNC(=O)c1ccccc1F)N/N=C/c1cccs1,"inconclusive: 20.6 µM [activator, partial curve]"
18,O=C(Nc1nc2c(Br)cc(Br)cc2c(=O)s1)c1ccco1,inactive
19,CCOc1ncccc1C(=O)OCc1ccc(Cl)cc1,inactive
20,O=C(O)c1ccc(-n2cccc2/C=C2/NC(=O)N(c3ccccc3)C2=O)cc1,inactive
21,CCCOC(c1ccccc1)(c1ccc(C(F)(F)F)cc1)C(Oc1nc(C)cc(C)n1)C(=O)O (stereo not given),inactive
22,CSc1nnc(-c2sc3cc(C(F)(F)F)cnc3c2-c2cccnc2)n1C,"inconclusive: 18.4 µM [inhibitor, partial curve, poor fit]"
23,COc1cc(/C=C/C(=O)OCc2cn3cc(Cl)ccc3n2)ccc1O,"inconclusive: 29.1 µM [inhibitor, single point]"

# Structural class, the entries above containing bromine
row,SMILES,Potency
3,CCC(=O)CN(Cc1cc(OC)ccc1OC)S(=O)(=O)c1ccccc1Br,inactive
18,O=C(Nc1nc2c(Br)cc(Br)cc2c(=O)s1)c1ccco1,inactive

# Following part:

row,SMILES,Potency
1,COc1ccc2oc(=O)c(-c3nc(C)cs3)cc2c1,"inconclusive: 8.2 µM [activator, partial curve]"
2,CCCOc1ccc(C(=O)Nc2cccnc2)cc1,"inconclusive: 2.31 µM [activator, full curve]"
3,CC1CCCC(NC(=S)NC(=O)c2ccccc2Br)C1C (stereo not given),"inconclusive: 29.1 µM [activator, single point]"
4,CCSc1ncc(Cl)c(C(=O)N(Cc2ccc(N(C)C)cc2)C2CCS(=O)(=O)C2)n1 (stereo not given),"inconclusive: 8.2 µM [inhibitor, partial curve]"
5,CC(C)N(Cc1ccccc1)C(=O)CN1C(=O)NC(Cc2ccccc2)(c2ccccc2)C1=O (stereo not given),"inconclusive: 32.6 µM [inhibitor, single point]"
6,Cc1cccc(C)c1NC(=O)CN1C(=O)NC(C)(C2CC2)C1=O (stereo not given),inactive
7,Cc1ccc2c(C(=O)CN3CCSCC3)c(C)[nH]c2c1,inactive
8,Cc1ccc(CNC(=O)C(=O)NCCC2CCCCN2S(=O)(=O)c2cccs2)cc1 (stereo not given),"inconclusive: 32.6 µM [inhibitor, partial curve, poor fit]"
9,COc1ccc(/C=C2\Sc3ccc(C(=O)N4CCOCC4)cc3N(C)C2=O)cc1,"inconclusive: 23.1 µM [inhibitor, single point]"
10,O=C(Nc1ccc2nsnc2c1)c1cccs1,"inconclusive: 14.6 µM [inhibitor, single point]"
11,NNC(=S)NC1CC2CC1C1C=CCC21 (stereo not given),inactive
12,c1ccc(-c2cnn3c(-c4ccccc4)c(-c4ccccc4)nc3n2)cc1,"inconclusive: 13 µM [inhibitor, partial curve, poor fit]"
13,Nc1c(C(=O)C2CC2)sc2nc3c(cc12)CCC3,"inconclusive: 14.6 µM [activator, partial curve]"
14,Cc1nc2oc3c(NCc4ccccc4)ncnc3c2c2c1COC(C)(C)C2,active: 7.31 µM
15,O=C(CN1C(=O)c2ccccc2S1(=O)=O)NC(Nc1ccccc1F)C(Cl)(Cl)Cl (stereo not given),inactive
16,COc1ccc(C(c2nnnn2C2CCCC2)N2CCN(C(=O)c3ccco3)CC2)cc1OC (stereo not given),inactive
17,N#CCCN(C(=S)NC(=O)c1cccs1)c1ccccc1F,"inconclusive: 18.3 µM [activator, partial curve, poor fit]"
18,CCN(CC)C(=O)[C@H]1C[C@H](CC(=O)NCc2cccc(C(F)(F)F)c2)C(=O)N2CCc3c([nH]c4ccc(Cl)cc34)[C@]12C,"inconclusive: 29.1 µM [inhibitor, single point]"
19,Cc1ccccc1C(=O)NNC(=O)c1cccn1C,"inconclusive: 5.8 µM [activator, single point]"
20,CC1Cc2ccccc2N1C(=O)CSc1nnc(-c2ccc(S(=O)(=O)N3CCCC3)cc2)o1 (stereo not given),"inconclusive: 29.1 µM [inhibitor, partial curve, poor fit]"
21,Cc1nn(Cc2c(Cl)cccc2Cl)c(C)c1NC(=O)c1cc(C(C)C)on1,"inconclusive: 13 µM [activator, partial curve, poor fit]"
22,Cc1nn(-c2ccccc2)c2sc(C(=O)NNC(=O)COc3ccccc3)cc12,"inconclusive: 18.4 µM [activator, single point]"
